According to PubChem BioAssay AID1671190 (National Center for Advancing Translational Sciences (NCATS), 2021):
Screen size: about 580,000 compounds; about 6,100 (1.1%) were called active. The inconclusive results got no clear call from the source; some entries with a clear call stand among them for comparison. Calls follow the shape of the dose curve; as a rule, active = well fitted inhibition curve with a large enough effect; inconclusive = small, poorly fitted or top-dose-only effect, or another doubt; inactive = no such curve, though single readings can be large or run the other way. Potencies beside an inconclusive call are fits to weak or partial responses and may not hold up.

Chains of the proteins cited; added tags and fusions are not shown.
UniProt P18054, whole entry, looked up: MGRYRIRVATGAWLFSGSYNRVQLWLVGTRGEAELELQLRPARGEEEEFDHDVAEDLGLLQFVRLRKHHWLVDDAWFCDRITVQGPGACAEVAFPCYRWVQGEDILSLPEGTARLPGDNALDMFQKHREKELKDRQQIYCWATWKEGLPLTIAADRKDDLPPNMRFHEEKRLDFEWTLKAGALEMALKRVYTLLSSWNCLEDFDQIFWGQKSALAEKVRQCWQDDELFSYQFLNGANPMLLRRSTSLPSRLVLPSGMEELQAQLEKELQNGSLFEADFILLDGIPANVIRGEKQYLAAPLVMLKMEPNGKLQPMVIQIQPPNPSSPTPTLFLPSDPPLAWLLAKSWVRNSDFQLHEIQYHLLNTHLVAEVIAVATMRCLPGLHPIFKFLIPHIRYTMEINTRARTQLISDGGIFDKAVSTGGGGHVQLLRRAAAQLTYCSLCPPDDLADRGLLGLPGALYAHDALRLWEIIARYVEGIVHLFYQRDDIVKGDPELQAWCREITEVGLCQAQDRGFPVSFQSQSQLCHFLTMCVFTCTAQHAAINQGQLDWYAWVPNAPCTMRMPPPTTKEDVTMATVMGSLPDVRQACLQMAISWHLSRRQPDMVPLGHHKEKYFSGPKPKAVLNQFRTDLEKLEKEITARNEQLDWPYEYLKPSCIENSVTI

Each compound was assayed against Polyunsaturated fatty acid lipoxygenase ALOX12 (Homo sapiens) (UniProt P18054) (assay: Primary qHTS assay for inhibitors of human arachidonate 12S-lipoxygenase (ALOX12): Round 2). Details: purified 12hLO, xylenol orange hydroperoxide absorbance; activity change, negative = inhibition: at 108 µM (top of the series) unless noted.
Method in brief: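 Hydroperoxide product was detected by ferrous iron/xylenol orange as the 573 to 405 nm absorbance ratio. Arachidonic acid at 40 uM (final) was turned over for 30 min at room temperature by 150 nM human 12hLO, pH 7.0 Hepes buffer, after 15 min compound preincubation.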
% is scaled to controls: 0 for no effect and ±100 for the full control effect; potency is read from the fitted curve at half-maximal effect.

Structure (SMILES) | Potency | activity change, negative = inhibition
O=C(NCCc1csc2nc(-c3ccccc3F)nn12)c1ccccc1C(F)(F)F | inactive | –
Oc1ccc(O)c(C=NNC(=S)NC2CC3CC2C2C=CCC32)c1 (centres undefined) | inconclusive: 50.1 µM [inhibitor, partial curve, poor fit] | –
N#CC1(C(N)=O)C(c2cccs2)CC(=O)CC1c1cccs1 (centres undefined) | inconclusive: 100 µM [inhibitor, partial curve, poor fit] | –
CC(NC(=O)CCCNC(=O)C1CC1)c1ccc(C#N)cc1 (centres undefined) | inconclusive: 141 µM [inhibitor, single point] | –
O=C1/C(=C/c2ccc([N+](=O)[O-])cc2)C=C(c2ccccc2)N1c1ccc(O)cc1 | inconclusive: 28.2 µM [inhibitor, partial curve, poor fit] | –
O=C1OCCN1C(=O)[C@H]1[C@H](c2ccc(Cl)cc2)C(c2cccc(Cl)c2)=NN1c1ccc(Br)cc1 | inconclusive: 126 µM [inhibitor, partial curve, poor fit] | –
CCCCn1nnc(NC(=O)COc2ccc(C(C)(C)C)cc2)n1 | inconclusive: 31.6 µM [inhibitor, partial curve, poor fit] | –
C=CCc1ccccc1OCC(O)CN1CCN(CCO)CC1 (centres undefined) | inconclusive: 7.94 µM [inhibitor, partial curve, poor fit] | –
COc1ccc(C(C(=O)NC2CCCCC2)N(C(=O)c2csnn2)C2CC2)cc1 (centres undefined) | inconclusive: 6.31 µM [inhibitor, full curve, poor fit] | –
c1ccc(-c2nc(-c3ccc(C4CCCCC4)cc3)cs2)cc1 | – | inconclusive: -33.6% [inhibitor]
COc1ccccc1NC(=O)c1ccc(N2CCCN(Cc3ccccc3C)C2=O)cc1 | inconclusive: 112 µM [inhibitor, partial curve, poor fit] | –
Cc1cc(Cl)c2cccc(C(F)(F)F)c2n1 | inconclusive: 2 µM [inhibitor, partial curve, poor fit] | –
Cc1ccc(Nc2ncnc3c2cnn3-c2ccc(C)cc2)cc1 | inconclusive: 50.1 µM [inhibitor, partial curve, poor fit] | –
Cc1ccc(OCC(O)CNS(=O)(=O)c2ccccc2C(=O)O)cc1 (centres undefined) | inconclusive: 14.1 µM [inhibitor, partial curve] | –
Cc1ccc(C(=O)CSc2ccccn2)cc1 | inconclusive: 4.47 µM [inhibitor, full curve, poor fit] | –
Cc1ccc2oc(=O)cc(N3CCOCC3)c2c1 | inactive | –
OCCn1nc2c3ccccc3nc-2n(-c2ccccc2)c1=S | inconclusive: 70.8 µM [inhibitor, partial curve, poor fit] | –
CCC(C)(C)NC(=O)C(c1cccs1)N(CC1CCCO1)C(=O)Cn1nnc2ccccc21 (centres undefined) | inactive | –
CC(=O)c1cccc2c(O)c(C3=Nc4ccccc4C3=O)[nH]c12 | inactive | –
O=C(CCN(CCO)Cc1ccccc1)Nc1ccc(Br)cc1 | inconclusive: 112 µM [inhibitor, partial curve, poor fit] | –
Cc1ccc(NC2=C(NC(=O)c3ccccc3)C(=O)c3ccccc3C2=O)cc1Cl | inconclusive: 12.6 µM [inhibitor, full curve] | –

Among those listed so far, these have a thiophene ring, fused or not:
Structure (SMILES) | Potency | activity change, negative = inhibition
N#CC1(C(N)=O)C(c2cccs2)CC(=O)CC1c1cccs1 (centres undefined) | inconclusive: 100 µM [inhibitor, partial curve, poor fit] | –
CCC(C)(C)NC(=O)C(c1cccs1)N(CC1CCCO1)C(=O)Cn1nnc2ccccc21 (centres undefined) | inactive | –

3 compounds from above, ordered by SMILES length, smallest number first.
Structure (SMILES) | Potency | activity change, negative = inhibition
Cc1cc(Cl)c2cccc(C(F)(F)F)c2n1 | inconclusive: 2 µM [inhibitor, partial curve, poor fit] | –
N#CC1(C(N)=O)C(c2cccs2)CC(=O)CC1c1cccs1 (centres undefined) | inconclusive: 100 µM [inhibitor, partial curve, poor fit] | –
O=C1OCCN1C(=O)[C@H]1[C@H](c2ccc(Cl)cc2)C(c2cccc(Cl)c2)=NN1c1ccc(Br)cc1 | inconclusive: 126 µM [inhibitor, partial curve, poor fit] | –

Next records.

Structure (SMILES) | Potency | activity change, negative = inhibition
COCCN1C(=O)CS(=O)(=O)C12CCN(C(=O)CCc1ccccc1OC)CC2 | inactive | –
CCCN1CCC(=O)N([C@H](CSc2ccccc2)CC(C)C)CC1 | inactive | –
CCC(C)N(CC(=O)Nc1cccc(C)c1C)C(=O)CN1CCCC(C(F)(F)F)C1 (centres undefined) | inactive | –
CN(C)c1ccc(N/C=C/C(=O)c2ccco2)cc1 | inconclusive: 70.8 µM [inhibitor, partial curve, poor fit] | –
O=C(Cn1nc2ccc(SCc3ccc(Cl)cc3)nn2c1=O)NCc1ccc(F)cc1 | inconclusive: 31.6 µM [inhibitor, partial curve, poor fit] | –
CC1(C)CC(NC(=S)Nc2cccc(C(F)(F)F)c2)CC(C)(C)N1 | inconclusive: 100 µM [inhibitor, single point] | –
CCCCCCc1cc(C=O)c(O)cc1O | inconclusive: 126 µM [inhibitor, single point] | –
CC(C)c1ccc(NC2CCCN(C(=O)c3ccsc3)C2)cc1 (centres undefined) | inconclusive: 50.1 µM [inhibitor, partial curve, poor fit] | –
CN(C)CCN(Cc1ccccc1)S(=O)(=O)c1ccc(-c2cc(C(F)(F)F)on2)s1 | inconclusive: 50.1 µM [inhibitor, partial curve, poor fit] | –
O=C(c1ccccc1)N1CCCC(c2nn(-c3ccc(Cl)cc3)c(=O)[nH]2)C1 (centres undefined) | inconclusive: 17.8 µM [inhibitor, full curve] | –
O=C(CN1C(=O)NC(Cc2ccccc2)C1=O)Nc1ccc(F)c(Cl)c1 (centres undefined) | inconclusive: 39.8 µM [inhibitor, partial curve, poor fit] | –
CCOc1ccc(NS(=O)(=O)c2ccc3[nH]cc(C(=O)NCCOC)c(=O)c3c2)cc1 | inconclusive: 100 µM [inhibitor, partial curve, poor fit] | –
Cc1ccc(C)c(NC(=O)CN(C)C(=O)c2ccc(S(=O)(=O)N(C)c3ccccc3)cc2)c1 | inactive | –
O=C(CCc1ccccc1)NC(=S)Nc1ccc(S(=O)(=O)N2CCOCC2)cc1 | inconclusive: 22.4 µM [inhibitor, partial curve, poor fit] | –
CSc1ccccc1NC(=O)/C=C\C(=O)O | inconclusive: 79.4 µM [inhibitor, single point] | –
O=C(O)CCCCCNc1nc(=S)[nH]c2ccccc12 | inconclusive: 31.6 µM [inhibitor, partial curve, poor fit] | –
Cc1ccc(-n2c(C)nn(Cc3ccc([N+](=O)[O-])cc3)c2=O)cc1 | inactive | –
COc1ncccc1-c1nnn(-c2ccc(Cl)nc2)n1 | inactive | –
COCCNC(=O)CCCN1C(=O)CCn2nc(-c3cccn3C)cc21 | inconclusive: 56.2 µM [inhibitor, partial curve, poor fit] | –
Cc1ccc(CCNC(=O)c2ccc(CS(=O)(=O)c3ccc(Cl)cc3)o2)cc1 | inactive | –
CCOc1ccccc1NC(=O)n1ncc2cc(Cl)ccc21 | inconclusive: 112 µM [inhibitor, partial curve, poor fit] | –
Cc1ccc(NC(=O)/C(C#N)=C/c2cc(C)n(-c3ccc(Br)cc3)c2C)cc1C | inactive | –

Structure (SMILES) | Potency | activity change, negative = inhibition
CCOC(=O)C1=C(O)/C(=C/c2ccc(-c3ccccc3C(=O)O)o2)SC1=Nc1ccc(C)cc1 | inconclusive: 50.1 µM [inhibitor, partial curve, poor fit] | –
COc1ccc(CCn2c(=O)[nH]c3cc(C(=O)N4CCN(c5ccccc5)CC4)ccc3c2=O)cc1OC | inactive | –
Cc1ccc(NC(=O)c2ccccc2SCC(=O)NC2CC2)c(Cl)c1 | inactive | –
COc1ccc(Cl)cc1NC(=O)CSc1nc(-c2ccccc2)cc(=O)[nH]1 | inconclusive: 6.31 µM [inhibitor, full curve] | –
COc1ccc([C@@H]2[C@@H](C(=O)N3CCOCC3)CC(=O)N2C(=O)c2ccccc2)cc1 | inactive | –
Cc1cccc(CNc2nc(-c3c(C)noc3C)nc3ccccc23)c1 | inconclusive: 89.1 µM [inhibitor, partial curve, poor fit] | –
C[n+]1c2n(c3ccccc31)N=C(c1ccc(-c3ccccc3)cc1)CS2 | inconclusive: 39.8 µM [inhibitor, partial curve, poor fit] | –
c1ccc2c(c1)oc1c(NCCCN3CCOCC3)ncnc12 | inconclusive: 56.2 µM [inhibitor, single point] | –
CN(C)c1ccc(CNC(=O)c2cnc(N3CCNC3=O)s2)cc1 | inconclusive: 112 µM [inhibitor, single point] | –
O=C1NCCCCCCN(Cc2ccncc2)[C@@H]2CN(C(=O)c3cccs3)CC[C@@H]12 | inactive | –
COc1ccc(-c2nc(SC)n(S(=O)(=O)c3ccccc3)n2)cc1 | inconclusive: 25.1 µM [inhibitor, partial curve, poor fit] | –
C[C@]12c3[nH]c4cc(-c5ccco5)ccc4c3CCN1C(=O)[C@@H](CC(=O)NCc1cccc(C(F)(F)F)c1)C[C@@H]2C(=O)N1CCCCC1 | inactive | –
Cc1ccc(S(=O)(=O)N=Nc2c(O)[nH]c3ccccc23)cc1 | inconclusive: 50.1 µM [inhibitor, partial curve, poor fit] | –
CCc1nccn1CC(=O)Nc1nn(C)c2cccc(Oc3cccnc3)c12 | inactive | –
O=c1[nH]c2ccccc2c(O)c1SCCO | inconclusive: 3.55 µM [inhibitor, full curve, poor fit] | –
C=CCCC1CN(Cc2ccco2)S(=O)(=O)c2c(F)cccc2O1 (centres undefined) | inconclusive: 50.1 µM [inhibitor, partial curve, poor fit] | –
O=C(COc1c(I)cc(Cl)c2cccnc12)NC12CC3CC(CC(C3)C1)C2 | inconclusive: 2.51 µM [inhibitor, full curve, poor fit] | –
CCOC(=O)c1[nH]cc(-c2ccccc2)c1N1CCOCC1 | inconclusive: 44.7 µM [inhibitor, partial curve, poor fit] | –
Cc1ccc(-c2csc3nc(SCC(=O)Nc4ccc(Cl)c(C(=O)O)c4)[nH]c(=O)c23)cc1 | inconclusive: 56.2 µM [inhibitor, partial curve, poor fit] | –
COc1ccc2c(COC(=O)c3cccc(S(=O)(=O)NCC(C)C)c3)cc(=O)oc2c1 | inactive | –
